# Measured values taken from PubChem BioAssay (Tox21).
# The chains behind the UniProt entries cited, without tags or fusion partners. Where a name states a change or a piece, a line headed by the entry shows the natural chain unless it says otherwise.
# UniProt P10635, whole entry, looked up: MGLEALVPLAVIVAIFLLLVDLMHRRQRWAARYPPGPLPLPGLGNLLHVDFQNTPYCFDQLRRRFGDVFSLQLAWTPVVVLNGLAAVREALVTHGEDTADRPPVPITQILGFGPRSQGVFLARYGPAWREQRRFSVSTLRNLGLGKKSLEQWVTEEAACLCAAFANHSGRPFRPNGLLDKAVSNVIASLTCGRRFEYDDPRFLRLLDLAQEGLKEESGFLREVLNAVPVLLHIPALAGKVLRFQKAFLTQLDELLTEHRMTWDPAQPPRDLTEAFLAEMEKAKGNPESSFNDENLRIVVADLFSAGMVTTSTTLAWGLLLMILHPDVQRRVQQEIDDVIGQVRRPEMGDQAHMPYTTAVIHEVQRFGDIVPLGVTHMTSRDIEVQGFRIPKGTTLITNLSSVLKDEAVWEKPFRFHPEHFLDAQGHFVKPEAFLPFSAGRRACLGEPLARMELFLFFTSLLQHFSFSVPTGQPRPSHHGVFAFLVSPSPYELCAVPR
# UniProt P33261, whole entry, looked up: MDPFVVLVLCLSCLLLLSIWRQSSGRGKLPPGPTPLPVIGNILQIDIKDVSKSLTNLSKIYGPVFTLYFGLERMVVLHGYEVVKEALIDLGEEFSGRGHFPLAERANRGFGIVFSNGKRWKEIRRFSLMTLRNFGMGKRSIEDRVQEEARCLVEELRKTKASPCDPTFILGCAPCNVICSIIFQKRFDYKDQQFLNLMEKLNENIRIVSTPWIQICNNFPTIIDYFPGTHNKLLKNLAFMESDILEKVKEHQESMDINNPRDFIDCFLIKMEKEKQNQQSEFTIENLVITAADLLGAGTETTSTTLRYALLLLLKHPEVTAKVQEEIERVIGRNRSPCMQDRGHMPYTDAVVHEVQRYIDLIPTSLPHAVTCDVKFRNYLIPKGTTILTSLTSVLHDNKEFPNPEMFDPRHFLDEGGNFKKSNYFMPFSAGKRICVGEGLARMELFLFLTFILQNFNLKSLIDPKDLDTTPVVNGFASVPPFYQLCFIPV
# UniProt P11712, whole entry, looked up: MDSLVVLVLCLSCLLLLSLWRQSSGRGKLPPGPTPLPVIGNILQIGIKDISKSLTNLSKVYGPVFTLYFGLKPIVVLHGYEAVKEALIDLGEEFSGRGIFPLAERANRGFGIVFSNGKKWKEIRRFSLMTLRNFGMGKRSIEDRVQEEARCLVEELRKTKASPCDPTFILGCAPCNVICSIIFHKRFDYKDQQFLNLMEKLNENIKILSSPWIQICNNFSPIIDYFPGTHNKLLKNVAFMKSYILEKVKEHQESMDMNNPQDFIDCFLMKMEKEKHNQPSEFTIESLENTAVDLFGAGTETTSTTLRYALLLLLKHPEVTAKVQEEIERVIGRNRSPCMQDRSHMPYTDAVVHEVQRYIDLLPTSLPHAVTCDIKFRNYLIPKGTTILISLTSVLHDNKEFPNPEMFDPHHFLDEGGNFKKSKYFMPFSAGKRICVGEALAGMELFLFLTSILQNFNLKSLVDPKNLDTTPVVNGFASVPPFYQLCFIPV
# UniProt Q12809: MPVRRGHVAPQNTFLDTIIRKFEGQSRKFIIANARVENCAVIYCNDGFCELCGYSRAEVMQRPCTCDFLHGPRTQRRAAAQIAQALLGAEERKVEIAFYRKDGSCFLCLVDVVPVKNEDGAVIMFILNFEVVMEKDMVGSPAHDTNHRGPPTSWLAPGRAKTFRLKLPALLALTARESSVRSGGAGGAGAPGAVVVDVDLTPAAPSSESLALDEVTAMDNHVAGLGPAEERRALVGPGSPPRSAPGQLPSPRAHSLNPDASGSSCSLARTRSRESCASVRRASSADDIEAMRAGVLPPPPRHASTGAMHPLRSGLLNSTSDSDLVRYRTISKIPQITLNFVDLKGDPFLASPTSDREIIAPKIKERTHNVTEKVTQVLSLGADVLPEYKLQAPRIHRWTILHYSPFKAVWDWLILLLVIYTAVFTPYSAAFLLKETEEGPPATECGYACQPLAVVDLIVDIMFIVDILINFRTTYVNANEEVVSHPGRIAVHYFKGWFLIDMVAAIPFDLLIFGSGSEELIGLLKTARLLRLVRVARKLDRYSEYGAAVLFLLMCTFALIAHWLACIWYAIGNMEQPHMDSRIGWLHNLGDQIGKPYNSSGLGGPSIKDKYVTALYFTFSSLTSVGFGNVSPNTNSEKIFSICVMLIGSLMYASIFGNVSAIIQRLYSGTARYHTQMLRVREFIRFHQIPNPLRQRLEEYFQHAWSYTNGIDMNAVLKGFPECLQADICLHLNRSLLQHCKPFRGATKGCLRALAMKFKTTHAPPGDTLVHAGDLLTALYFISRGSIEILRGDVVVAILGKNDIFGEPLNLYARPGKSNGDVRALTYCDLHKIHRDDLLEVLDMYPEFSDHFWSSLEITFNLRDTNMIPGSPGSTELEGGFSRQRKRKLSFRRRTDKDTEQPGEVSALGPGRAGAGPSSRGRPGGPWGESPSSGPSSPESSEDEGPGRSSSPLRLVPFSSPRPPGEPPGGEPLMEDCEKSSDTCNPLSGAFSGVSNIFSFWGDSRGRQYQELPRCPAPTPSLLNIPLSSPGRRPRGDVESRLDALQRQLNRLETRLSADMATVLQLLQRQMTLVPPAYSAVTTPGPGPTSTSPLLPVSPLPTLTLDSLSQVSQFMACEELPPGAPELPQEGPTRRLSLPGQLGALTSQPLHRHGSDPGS
# UniProt P05177, whole entry, looked up: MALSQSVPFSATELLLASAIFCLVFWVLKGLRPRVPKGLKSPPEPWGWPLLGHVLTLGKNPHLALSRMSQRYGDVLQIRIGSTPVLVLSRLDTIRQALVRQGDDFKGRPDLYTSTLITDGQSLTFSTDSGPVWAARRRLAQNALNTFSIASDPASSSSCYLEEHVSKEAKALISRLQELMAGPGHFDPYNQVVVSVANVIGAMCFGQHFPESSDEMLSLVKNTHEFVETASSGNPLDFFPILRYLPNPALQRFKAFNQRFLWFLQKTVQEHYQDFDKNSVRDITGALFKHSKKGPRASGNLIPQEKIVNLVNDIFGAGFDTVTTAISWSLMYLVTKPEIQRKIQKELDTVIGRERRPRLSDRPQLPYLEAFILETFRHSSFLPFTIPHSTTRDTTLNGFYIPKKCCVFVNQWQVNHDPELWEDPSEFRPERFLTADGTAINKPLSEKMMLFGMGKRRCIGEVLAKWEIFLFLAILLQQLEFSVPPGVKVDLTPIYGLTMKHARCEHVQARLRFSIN
# UniProt Q9R1A7: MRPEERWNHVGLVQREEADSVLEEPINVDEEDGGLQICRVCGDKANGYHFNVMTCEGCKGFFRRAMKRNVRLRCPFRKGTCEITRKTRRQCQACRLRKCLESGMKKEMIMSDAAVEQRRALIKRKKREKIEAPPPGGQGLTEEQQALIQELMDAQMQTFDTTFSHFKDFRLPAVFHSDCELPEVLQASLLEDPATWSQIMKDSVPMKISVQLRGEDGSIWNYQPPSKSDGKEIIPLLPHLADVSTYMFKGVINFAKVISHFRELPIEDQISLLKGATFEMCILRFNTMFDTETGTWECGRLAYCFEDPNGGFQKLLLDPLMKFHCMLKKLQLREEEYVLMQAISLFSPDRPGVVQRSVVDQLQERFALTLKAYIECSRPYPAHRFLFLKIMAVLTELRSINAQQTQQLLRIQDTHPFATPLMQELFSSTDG
# UniProt P08684, whole entry, looked up: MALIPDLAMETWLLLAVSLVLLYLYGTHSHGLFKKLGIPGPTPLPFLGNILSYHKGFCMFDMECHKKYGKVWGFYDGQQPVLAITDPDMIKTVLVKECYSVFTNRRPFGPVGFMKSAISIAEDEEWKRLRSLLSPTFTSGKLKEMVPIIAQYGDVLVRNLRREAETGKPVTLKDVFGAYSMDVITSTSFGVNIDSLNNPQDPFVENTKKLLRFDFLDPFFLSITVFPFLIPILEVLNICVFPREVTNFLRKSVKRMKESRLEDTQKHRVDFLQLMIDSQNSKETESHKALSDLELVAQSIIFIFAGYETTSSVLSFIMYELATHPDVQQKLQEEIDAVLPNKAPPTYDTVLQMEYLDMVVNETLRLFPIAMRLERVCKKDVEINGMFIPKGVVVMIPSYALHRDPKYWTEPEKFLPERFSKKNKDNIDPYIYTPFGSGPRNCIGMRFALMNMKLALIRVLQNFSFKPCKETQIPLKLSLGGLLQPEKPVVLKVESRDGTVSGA
# Where “and” joins values, the source holds several entries; their conditions need not be identical. Equal entries are not always repeated. The inconclusive results got no clear call from the source; some entries with a clear call stand among them for comparison. For some of these results: Potencies of inconclusive entries are doubtful fits and often do not repeat. Some compounds were tested as several samples or in several runs, with calls that do not always agree. Calls of active or inactive are those of the source. Calls come from the whole dose curve; as a rule, active = well fitted curve in the direction sought with a large enough effect in the repeat runs; inconclusive = weak or mixed curves; inactive = no such curve, though single readings can be large; an effect the other way counts as inactive or inconclusive.
# Assays:
# [1] = biological target: Cytochrome P450 2D6 (Homo sapiens) (UniProt P10635); test: Cytochrome P450 Family 2 Subfamily D Member 6 (CYP2D6) small molecule antagonists: luciferase reporter qHTS assay (AID 1671196); note: nearly all actives have a fitted effect of over 50% in size; note: potency is the fitted concentration of half-maximal effect
# Outline: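 Each well received CYP2D6 with its proluciferin substrate and chemical, sat 10 min, then got NADPH regeneration solution for 1 h at room temperature. Luminescence in RLU served as the activity measure.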
# [2] = biological target: Cytochrome P450 2C19 (Homo sapiens) (UniProt P33261); test: Cytochrome P450 Family 2 Subfamily C Member 19 (CYP2C19) small molecule antagonists: luciferase reporter qHTS assay (AID 1671197); note: potency is the fitted concentration of half-maximal effect; nearly all actives have a fitted effect of over 65% in size
# Outline: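 P450-Glo CYP2C19 screening system; proluciferin substrate; DMSO compound stocks; 10 min RT preincubation; NADPH regeneration, 1 h at 37C; luciferin detection reagent, 20 min RT; luminescence as RLU.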
# [3] = biological target: Cytochrome P450 2C9 (Homo sapiens) (UniProt P11712); test: Cytochrome P450 Family 2 Subfamily C Member 9 (CYP2C9) small molecule antagonists: luciferase reporter qHTS assay (AID 1671198); note: nearly all actives have a fitted effect of over 50% in size; note: potency is the fitted concentration of half-maximal effect
# Outline: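 CYP2C9 activity was measured with a P450-Glo proluciferin substrate. Enzyme–substrate mix was held with compound for 10 min at room temperature, then NADPH regeneration solution was added for 1 h at 37C. Luciferin product was read as luminescence.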
# [4] = biological target: Nuclear receptor subfamily 1 group I member 2 (Homo sapiens) (UniProt O75469); test: Human pregnane X receptor (PXR) small molecule agonists, qHTS assay (AID 1346982); note: nearly all actives have a fitted effect of over 35% in size; note: potency is the fitted concentration of half-maximal effect; for activation: % is set by controls: 0 for no effect and ±100 for the full control effect
# Outline: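 Compound-induced hPXR transactivation of a CYP3A4 luciferase reporter was scored in HepG2 PXR-Luc cells over 24 hr at 37 C, 5% CO2, by luminescence.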
# [5] = biological target: Voltage-gated inwardly rectifying potassium channel KCNH2 (Homo sapiens) (UniProt Q12809); test: Human Ether-a-go-go-Related Gene (hERG) channel small molecule antagonists: fluorescence cell-based qHTS assay (AID 1671200); note: potency is the fitted concentration of half-maximal effect; nearly all actives have a fitted effect of over 50% in size
# Outline: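 hERG-U2OS cells plated overnight at 37 C, loaded with FluxOR II dye 1 h at RT in dark; after 10 min, thallium stimulus added. Fluorescence (480/540 nm) read kinetically for 2 min at 1 s intervals.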
# [6] = biological target: Nuclear receptor subfamily 1 group I member 2 (Homo sapiens) (UniProt O75469); test: Human pregnane X receptor (PXR) activation by small molecules, qHTS assay (AID 1346985); note: potency is the fitted concentration of half-maximal effect; nearly all actives have a fitted effect of over 40% in size
# Outline: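 DPX-2 cells (HepG2 co-transfected with a PXR response element and a CYP3A4-promoter luciferase construct) were seeded at 2,000 per well, rested 5 hr at 37C, then exposed to DMSO-dissolved compounds for 24 hr. Activation was read as luciferase luminescence.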
# [7] = biological target: Cytochrome P450 1A2 (Homo sapiens) (UniProt P05177); test: Cytochrome P450 Family 1 Subfamily A Member 2 (CYP1A2) small molecule antagonists: luciferase reporter qHTS assay (AID 1671199); note: nearly all actives have a fitted effect of over 50% in size; note: potency is the fitted concentration of half-maximal effect
# Outline: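 Enzymatic CYP1A2 assay, human, luminescent: 10 min compound–enzyme–substrate preincubation, 1 h NADPH-dependent turnover, 20 min detection step, room temperature throughout. Reduced light indicates lower CYP1A2 activity.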
# [8] = biological target: Nuclear receptor subfamily 1 group I member 2 (Rattus norvegicus) (UniProt Q9R1A7); test: Rat pregnane X receptor (rPXR) activation by small molecules, qHTS assay (AID 1346983); conditions: rPXR luciferase reporter cells, One-Glo luminescence, 24 h; max activation: stronger effect = higher value; note: % is set by controls: 0 for no effect and ±100 for the full control effect; nearly all actives have a fitted effect of over 20% in size
# Outline: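 Cell-based rPXR luciferase reporter assay, 2,000 cells per well, rested 5hr at 37 C before compound addition in DMSO, then 24 hr at 37 C. One-Glo reagent was added and luminescence read after 30 min at room temperature.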
# [9] = biological target: Cytochrome P450 3A4 (Homo sapiens) (UniProt P08684); test: Cytochrome P450 Family 3 Subfamily A Member 4 (CYP3A4) small molecule antagonists: luciferase reporter qHTS assay (AID 1671201); note: nearly all actives have a fitted effect of over 50% in size; note: potency is the fitted concentration of half-maximal effect
# Outline: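 P450-Glo CYP3A4 luminescent assay: compounds preincubated 10 min at room temperature with enzyme and proluciferin substrate, NADPH regeneration added, 1 h room-temperature reaction, stopped with luciferin detection reagent; luminescence read after 20 min. Ketoconazole positive control.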
structure (smiles),measurement,setting,value
S=c1nccc[nH]1,Potency,[1],active: 31.8 µM
CCC(CC)C(=O)O,Potency,[1],inactive
N[C@@H](CS)C(=O)O,Potency,[1],"inconclusive: 36.1 µM [inhibitor, partial curve]"
same,Potency,[2],"inconclusive: 3.22 µM [inhibitor, full curve, poor fit]"
same,Potency,[3],inconclusive: 36.1 µM [inhibitor]
C(=C(c1ccccc1)c1ccccc1)c1ccccc1,Potency,[4],"inconclusive: 54.5 µM [activator, partial curve, poor fit]"
same,Potency,[5],"inconclusive: 9.77 µM [inhibitor, full curve]"
CCOC(=O)[C@H](CCc1ccccc1)N[C@@H](C)C(=O)N1Cc2cc(OC)c(OC)cc2C[C@H]1C(=O)O,Potency,[6],"inconclusive: 25.1 µM [activator, single point]"
same,Potency,[2],"inconclusive: 6.17 µM [inhibitor, full curve, poor fit]"
same,Potency,[7],inactive
O=c1[nH]cnc2c1ncn2[C@@H]1O[C@H](CO)[C@@H](O)[C@H]1O,Potency,[1],inactive
same,Potency,[2],"inconclusive: 9.77 µM [inhibitor, single point]"
same,Potency,[3],inactive
COC(=O)CC#N,Potency,[1],"inconclusive: 74.8 µM [inhibitor, partial curve]"
same,Potency,[2],"inconclusive: 66.6 µM [inhibitor, single point]"
C/C=C(\C)C(=O)OCCc1ccccc1,Potency,[4],inactive
same,Potency,[3],"inconclusive: 79.6 µM [inhibitor, partial curve, poor fit]"
same,Potency,[7],active: 39.9 µM
Cc1cc(C)cc(OCC2CNC(=O)O2)c1 (configuration not stated),max activation,[8],inactive: -2.51%
same,Potency,[1],inactive
same,Potency,[7],"inconclusive: 27.5 µM [inhibitor, partial curve]"
O=C(CCN1CCN(CCO)CC1)N1c2ccccc2Sc2ccc(C(F)(F)F)cc21,Potency,[4],"inconclusive: 33.5 µM [activator, single point]"
same,Potency,[7],inactive
CCn1nc(C)c2c1C(=O)NCC(c1ccc(O)cc1)=N2,Potency,[4],inconclusive: 61.1 µM [activator]
same,Potency,[9],active: 31.7 µM
Nc1ccccc1S(=O)(=O)c1ccccc1,Potency,[4],"inconclusive: 68.6 µM [activator, single point]"
same,Potency,[3],inactive
same,Potency,[7],"inconclusive: 35.6 µM [inhibitor, partial curve]"
same,Potency,[9],"inconclusive: 71 µM [inhibitor, partial curve, poor fit]"
O=P(O)(O)OCC(O)CO (configuration not stated),Potency,[1],inactive
COC(=O)CCC(=O)OC,Potency,[1],inactive
same,Potency,[2],"inconclusive: 91.8 µM [inhibitor, single point]"
same,Potency,[3],"inconclusive: 73 µM [inhibitor, partial curve]"
same,Potency,[7],"inconclusive: 41 µM [inhibitor, partial curve, poor fit] and inconclusive: 63.3 µM [inhibitor, partial curve, poor fit]"
Nc1cc(C(=O)O)ccc1Cl,Potency,[1],inactive
same,Potency,[2],"inconclusive: 89.4 µM [inhibitor, single point]"
same,Potency,[7],inactive
c1ccc2c(c1)c1cccc3ccc4cccc2c4c31,Potency,[1],"inconclusive: 39.7 µM [inhibitor, partial curve] and inconclusive: 71 µM [inhibitor, partial curve]"
same,Potency,[3],inconclusive: 79.1 µM [inhibitor]
same,Potency,[9],inactive
CCCCCC[C@@H](O)C/C=C\CCCCCCCC(=O)OCC(O)CO (some centres not stated),Potency,[1],"inconclusive: 35.6 µM [inhibitor, partial curve]"
same,Potency,[2],inconclusive: 79.6 µM [inhibitor]
same,Potency,[3],active: 11.2 µM
same,Potency,[7],inactive
same,Potency,[9],"inconclusive: 15.9 µM [inhibitor, full curve]"
O=C1c2ccccc2C(=O)N1CCl,Potency,[1],"inconclusive: 2.81 µM [inhibitor, single point]"
same,Potency,[3],inactive
same,Potency,[7],"inconclusive: 39.7 µM [inhibitor, partial curve]"
CC(=O)C1(C)CC2=C(CCCC2(C)C)CC1C (configuration not stated),Potency,[1],inactive
same,Potency,[3],inactive
same,Potency,[5],inconclusive: 41.6 µM [inhibitor]
O=C(C(=O)c1ccccc1)c1ccccc1,Potency,[1],active: 31.6 µM
same,Potency,[3],inactive
same,Potency,[7],active: 11.2 µM
NNc1ccc(C(=O)O)cc1,Potency,[1],"inconclusive: 40.5 µM [inhibitor, partial curve, poor fit] and inconclusive: 45.3 µM [inhibitor, partial curve, poor fit]"
same,Potency,[3],"inconclusive: 32 µM [inhibitor, partial curve, poor fit]"
same,Potency,[9],"inactive and inconclusive: 36 µM [inhibitor, partial curve]"
CCO/C=C1\N=C(c2ccccc2)OC1=O,Potency,[1],"inconclusive: 35.5 µM [inhibitor, partial curve, poor fit]"
same,Potency,[3],"inconclusive: 63.1 µM [inhibitor, partial curve]"
CCN(CC)C(C)=O,Potency,[1],"inconclusive: 74.3 µM [inhibitor, partial curve, poor fit]"
same,Potency,[7],"inconclusive: 66.2 µM [inhibitor, partial curve, poor fit]"
CC(=O)/C=C/C1=C(C)CCCC1(C)C,Potency,[1],"inconclusive: 40.7 µM [inhibitor, partial curve]"
same,Potency,[3],"inconclusive: 81.2 µM [inhibitor, single point] and inconclusive: 71 µM [inhibitor, partial curve, poor fit] and inconclusive: 35.6 µM [inhibitor, partial curve, poor fit]"
same,Potency,[9],"inconclusive: 36.3 µM [inhibitor, partial curve] and inconclusive: 35.6 µM [inhibitor, partial curve] and active: 35.6 µM"
CCCCCCCCCI,Potency,[1],"inconclusive: 81.1 µM [inhibitor, partial curve, poor fit]"
same,Potency,[3],"inconclusive: 64.4 µM [inhibitor, partial curve]"
same,Potency,[7],inactive
NC(=O)NC1NC(=O)NC1=O (configuration not stated),Potency,[1],active: 35.2 µM
same,Potency,[3],inactive
Cc1nc2n(c(=O)c1CCN1CCC(c3noc4cc(F)ccc34)CC1)CCCC2,Potency,[1],active: 2.19 µM
same,Potency,[7],"inconclusive: 12.9 µM [inhibitor, partial curve]"
Nc1ccc(S(=O)(=O)NC(=O)c2ccccc2)cc1,Potency,[1],"inconclusive: 38.9 µM [inhibitor, single point]"
same,Potency,[3],"inconclusive: 27.5 µM [inhibitor, partial curve]"
CCCCCCCCCOC(=O)c1ccccc1C(=O)OCCCCCCCCC,Potency,[1],"inconclusive: 56.3 µM [inhibitor, partial curve]"
same,Potency,[7],active: 35.5 µM
CCCCOC(=O)[C@H](C)O,Potency,[1],inactive
same,Potency,[3],inactive
C[C@H](CS)C(=O)N1CCC[C@H]1C(=O)O,Potency,[1],"inconclusive: 43.6 µM [inhibitor, single point]"
same,Potency,[2],active: 21.9 µM
same,Potency,[3],"inconclusive: 12.3 µM [inhibitor, full curve]"
same,Potency,[7],inactive
O=C(CCOCCOCCOCCOCCC(=O)Nc1c(I)cc(I)c(C(=O)O)c1I)Nc1c(I)cc(I)c(C(=O)O)c1I,Potency,[1],inactive
same,Potency,[3],inactive
same,Potency,[7],inactive
CCCCN,Potency,[1],"inconclusive: 59.6 µM [inhibitor, partial curve, poor fit]"
same,Potency,[2],"inconclusive: 42.2 µM [inhibitor, single point]"
same,Potency,[3],"inconclusive: 37.6 µM [inhibitor, partial curve, poor fit]"
CCCOCCC,Potency,[1],inactive
same,Potency,[3],"inconclusive: 79.6 µM [inhibitor, single point]"
C/C=C(\C)C#N,Potency,[1],inactive
same,Potency,[3],"inconclusive: 35 µM [inhibitor, full curve, poor fit]"
same,Potency,[7],"inconclusive: 39.3 µM [inhibitor, partial curve]"
C1CCCNCC1,Potency,[1],"inconclusive: 42.1 µM [inhibitor, partial curve]"
same,Potency,[3],inactive
same,Potency,[7],inactive
OC[C@H]1O[C@@H]2O[C@H]3[C@H](O)[C@@H](O)[C@@H](O[C@H]4[C@H](O)[C@@H](O)[C@@H](O[C@H]5[C@H](O)[C@@H](O)[C@@H](O[C@H]6[C@H](O)[C@@H](O)[C@@H](O[C@H]7[C@H](O)[C@@H](O)[C@@H](O[C@H]8[C@H](O)[C@@H](O)[C@@H](O[C@H]1[C@H](O)[C@H]2O)O[C@@H]8CO)O[C@@H]7CO)O[C@@H]6CO)O[C@@H]5CO)O[C@@H]4CO)O[C@@H]3CO,Potency,[1],"inconclusive: 35.7 µM [inhibitor, partial curve, poor fit] and inconclusive: 43.6 µM [inhibitor, single point]"
same,Potency,[3],"inconclusive: 44.9 µM [inhibitor, partial curve]"
same,Potency,[7],inactive
O=C(O)c1ccccc1Cl,Potency,[1],"inconclusive: 89.2 µM [inhibitor, single point]"
same,Potency,[3],"inconclusive: 31.7 µM [inhibitor, full curve, poor fit]"
O=C(COCCOCCOCC(=O)Nc1c(I)cc(I)c(C(=O)O)c1I)Nc1c(I)cc(I)c(C(=O)O)c1I,Potency,[1],"inconclusive: 38.9 µM [inhibitor, single point]"
same,Potency,[3],inactive
Nc1ccc(C(=O)OCC(O)CO)cc1 (configuration not stated),Potency,[1],inactive
same,Potency,[3],"inconclusive: 17.4 µM [inhibitor, partial curve]"
CC(C)COC(=O)c1ccccc1O,Potency,[1],inactive
same,Potency,[7],"inconclusive: 39.9 µM [inhibitor, partial curve]"
CCC(C)C1N=C(C)C(C)S1 (configuration not stated),Potency,[1],"inconclusive: 28.3 µM [inhibitor, full curve]"
same,Potency,[3],active: 39.9 µM
same,Potency,[7],"inconclusive: 31.7 µM [inhibitor, partial curve, poor fit]"
same,Potency,[9],active: 25.2 µM
CCN1CCc2nc(N)oc2CC1,Potency,[1],"inconclusive: 8.71 µM [inhibitor, full curve]"
same,Potency,[7],inactive

# Retrieved one by one from the list above (four):
structure (smiles),measurement,setting,value
CCCCCC[C@@H](O)C/C=C\CCCCCCCC(=O)OCC(O)CO (some centres not stated),Potency,[7],inactive
C1CCCNCC1,Potency,[1],"inconclusive: 42.1 µM [inhibitor, partial curve]"
O=P(O)(O)OCC(O)CO (configuration not stated),Potency,[1],inactive
C1CCCNCC1,Potency,[3],inactive

# 2 entries from above, bar-delimited.
structure (smiles) | measurement | setting | value
CCCOCCC | Potency | [3] | inconclusive: 79.6 µM [inhibitor, single point]
C/C=C(\C)C#N | Potency | [1] | inactive
